Reference: PMC12805590
Results are given in words; binding and its absence hold for the method and conditions named. In cells and extracts the contact can be indirect. Here binding means that the protein was enriched with, or labelled near, the bait; the list need not be complete. One block for each binder: values may come before it.

Biological target: apoptosis-related protein in the transforming growth factor-β signaling pathway (ARTS) (human (endogenous in MDA-MB-231))
Experiment: affinity purification with mass spectrometry; co-IP of endogenous ARTS from MDA-MB-231 cells treated with PBS, DOX or DTX, then LC-MS/MS; proteins present in the DOX/DTX groups but absent in PBS

- binding: binds
B1: Livin (BIRC7) (protein, UniProt Q96CA5 1-298)
chain: MGPKDSAKCLHRGPQPSHWAAGDGPTQERCGPRSLGSPVLGLDTCRAWDHVDGQILGQLRPLTEEEEEEGAGATLSRGPAFPGMGSEELRLASFYDWPLTAEVPPELLAAAGFFHTGHQDKVRCFFCYGGLQSWKRGDDPWTEHAKWFPSCQFLLRSKGRDFVHSVQETHSQLLGSWDPWEEPEDAAPVAPSVPASGYPELPTPRREVQSESAQEPGGVSPAEAQRAWWVLEPPGARDVEAQLRRLQEERTCKVCLDRAVSIVFVPCGHLVCAECAPGLQLCPICRAPVRSRVRTFLS

- binding: binds
B2: seven in absentia homolog 1 (SIAH1) (enzyme, UniProt Q8IUQ4 1-282)
chain: MSRQTATALPTGTSKCPPSQRVPALTGTTASNNDLASLFECPVCFDYVLPPILQCQSGHLVCSNCRPKLTCCPTCRGPLGSIRNLAMEKVANSVLFPCKYASSGCEITLPHTEKADHEELCEFRPYSCPCPGASCKWQGSLDAVMPHLMHQHKSITTLQGEDIVFLATDINLPGAVDWVMMQSCFGFHFMLVLEKQEKYDGHQQFFAIVQLIGTRKQAENFAYRLELNGHRRRLTWEATPRSIHEGIATAIMNSDCLVFDTSIAQLFAENGNLGINVTISMC
